Data from US9969747B2 (Constellation Pharmaceuticals, Inc., priority 2014, dated 2018).
This continues a long series; more values of the same kind are listed elsewhere.

Experiment: Oral pharmacokinetics in male Sprague Dawley rats, suspension in 0.5% Methylcellulose
Format: in vivo
Conditions: 10 mg/Kg single oral dose, group value

Plasma concentration, PO1 (0.250 h): 907 ng/mL
Plasma concentration, PO1 (0.500 h): 1550 ng/mL
Compound: Cc1noc2c1-c1ccccc1C(c1ccc(Cl)cc1)=N[C@H]2CC(N)=O [monohydrate Form A, 2-((4S)-6-(4-chlorophenyl)-1-methyl-4H-benzo[c]isoxazolo[4,5-e]azepin-4-yl)acetamide]
